Source: paper PMC9117277
No constants are given. Whether binding was seen depends on the method and setting. In cells and extracts the contact can be indirect. Here binding means that the protein was enriched with, or labelled near, the bait; the list need not be complete.

Protein sequences, listed by entry. Tags and fused reporters are not part of them. Residues count along the entry.
UniProt Q8JZU2, residues 14-311: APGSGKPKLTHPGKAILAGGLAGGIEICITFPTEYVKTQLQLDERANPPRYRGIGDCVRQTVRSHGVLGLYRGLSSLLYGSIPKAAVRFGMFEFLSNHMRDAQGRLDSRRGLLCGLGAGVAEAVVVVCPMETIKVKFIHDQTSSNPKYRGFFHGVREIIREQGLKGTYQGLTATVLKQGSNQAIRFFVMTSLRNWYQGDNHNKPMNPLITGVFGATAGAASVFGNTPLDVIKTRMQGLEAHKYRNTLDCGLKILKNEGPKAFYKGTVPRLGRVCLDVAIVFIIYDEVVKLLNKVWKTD

Molecular target: T1, IRAKM (mouse (endogenous in primary adipocytes)) (UniProt Q8K4B2)
T1 sequence: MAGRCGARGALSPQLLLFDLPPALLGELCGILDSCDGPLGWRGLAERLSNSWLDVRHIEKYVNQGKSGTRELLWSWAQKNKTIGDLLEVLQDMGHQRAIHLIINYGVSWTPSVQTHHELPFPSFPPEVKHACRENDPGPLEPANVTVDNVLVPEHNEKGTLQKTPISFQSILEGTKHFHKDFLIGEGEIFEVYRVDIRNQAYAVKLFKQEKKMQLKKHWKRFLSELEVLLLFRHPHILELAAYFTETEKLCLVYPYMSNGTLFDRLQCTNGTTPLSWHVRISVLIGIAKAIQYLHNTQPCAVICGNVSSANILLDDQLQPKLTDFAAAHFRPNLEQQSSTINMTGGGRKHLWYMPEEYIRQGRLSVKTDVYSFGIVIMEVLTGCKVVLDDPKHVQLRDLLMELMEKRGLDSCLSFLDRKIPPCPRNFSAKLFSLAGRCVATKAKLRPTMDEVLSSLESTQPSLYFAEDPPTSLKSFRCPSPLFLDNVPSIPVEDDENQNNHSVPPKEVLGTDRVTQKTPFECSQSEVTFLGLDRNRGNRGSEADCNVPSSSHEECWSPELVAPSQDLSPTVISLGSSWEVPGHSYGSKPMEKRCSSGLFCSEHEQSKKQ
Assay: affinity purification with mass spectrometry; immunoprecipitation with anti-IRAKM antibody from lysates of untreated and IL-1β-treated (1 h) primary adipocytes; in-solution digestion, LC-MS/MS; n = 1

binding: binds
Substance: mitochondrial citrate carrier solute carrier family 25 member 1 (Slc25a1) (from UniProt Q8JZU2 14-311)
